# From article PMC10163288
# This is one part of the list.
# B1: il2ra_site2_2erj_sap_28_mot_036bed11a46af16b1bcff1c055f4941a_0001_af2_000000100_0001_34_48_H_._HHH_b2_04017_0001_0000300009_0000001_0_0001 (protein)
# chain: SSSSSEEEERLEELLKKIEEAIEKNDFRLANELLAEVIELARELNDDEVLRAVYELMRRVFSSSS
# B2: il2ra_site1_1z92_sap_24_mot_HHH_b1_07526_000000113_0001_40_57_H_._HEEHE_2114_af2_0001_0000200014_0000001_0_0001_af2pred_0001_af2pred_1 (protein)
# chain: SSSSDDEELQEAMELWEEAARIRDPEEVEELLERAKELAKRANDENILKDIEHFLRLLRKSSSSS
# B3: il2ra_site2_3nfp_sap_16_mot_HHH_b2_04619_000000299_0001_40_56_H_._HHH_b1_03268_0001_0000100007_0000001_0_0001 (protein)
# chain: SEELEELLKELKEHGDPRLAEELAELLKELKRRGDPEAIRVAWELLRLALEGDPLASEVADALTK
# B4: il2ra_site1_3nfp_sap_14_mot_891b8491a18eb46c9ad5c1702b87f9cc_0001_000000120_0001_18_33_H_._HHH_b2_03173_0001_0000100001_0000001_0_0001_af2pred_0001_af2pred (protein)
# chain: SSSSDEEEEELEKLLEKLRELLKEGDAHKVSRLVKRILQLARKLEDEEVHREVEELLRRAASSSS
# B5: il2ra_site2_2erj_sap_13_mot_12d8a9d2629acc90dc040184e432c6f0_0001_000000022_0001_16_30_H_._HHH_b2_07593_0001_0000800022_0000001_0_0001 (protein)
# chain: SSSSDEEEEMLEAMLELVEELLKLGNPEDARIALEFAKALARALNDEEIQRLLEELEEELDSSSS
# B6: il2ra_site2_2erj_normal_mot_HHH_b2_07568_000000046_0001_18_34_H_._HHH_b2_05586_af2_0001_0000200004_0000001_0 (protein)
# chain: SSSSDEEEARRLYEEAEKLLEEGDPEEALEVLRRASEIAFEAGDFELFAEISELLREVAERSSSS
# B7: il2ra_site1_2b5i_sap_18_mot_HHH_b2_04910_000000118_0001_1_19_H_._HHH_b1_00873_0001_0000100003_0000001_0_0001 (protein)
# chain: SSSSDELQELFREASELYREGNSEEAEKVLRKAEELAEELNDEKALEDLRFMLEQVERAKSSSSS
# B8: il2ra_site2_2erj_sap_25_mot_9bc32e39fd96e64286323717145257bc_0001_000000236_0001_17_32_H_._99435e095d70fd56fcad6a1c72fb48ac_0001_1_af2_0001_0000300011_0000001_0 … (protein)
# chain: SSSSSDEEEILEEAKELLERLLKEGDPREAFKVASRFLMALLQLGDKEAAEELLKLAQETSSSSS
# B9: il2ra_site1_2b5i_normal_mot_HHH_b1_01574_000000118_0001_1_19_H_._HHH_b1_03987_0001_0000500015_0000001_0_af2pred_dldesign_0_af2pred (protein)
# chain: SSSSSSEKDFERRVKLLEEALKEIKDEAARAEITALLKEAEKNKDNVLLRRAMELANSVLSSSSS
# B10: il2ra_site1_3nfp_sap_7_mot_HHH_b2_01582_af2_000000000_0001_1_16_H_._HHH_b2_07458_0001_0000500016_0000001_0_0001 (protein)
# chain: DLEEEVREILERRLPPRLVELFLDVLKLAERELGDPEEALERLIERLRKLGTPEVAKLLEELLKR
# B11: il2ra_site1_1z92_normal_mot_HHH_b1_04261_000000113_0001_39_52_H_._HEEHE_2123_af2_0001_0000100006_0000001_0 (protein)
# chain: NAERAAEQLAEFLERTYKVPKVEIEVKNDRVTVTVKGDDELAELALKVAEKLAEAAGDEVELRTE
# B12: il2ra_site1_1z92_normal_mot_890837e3a18e6c361ae5da7f11a0c10d_0001_1_000000285_0001_19_34_H_._0f4cfc614b99dbcf159cc5af5b9a7aad_0001_1_0001_0000100005_0000001_0_a … (protein)
# chain: SLEERLLALAEKLGIPAADVRRMLARLTAQLGNPRNALTYLYRLAKLALERKDERLIAFLREAAE
# B13: il2ra_site2_3nfp_sap_12_mot_HHH_b2_00102_000000046_0001_18_35_H_._HHH_b1_03494_0001_0000300004_0000001_0_0001 (protein)
# chain: SSSSSSSIAELISEAIRLRENGNPEEAQEVLEEAIKEAEERGDERAVEYLRAVLLLLEESSSSSS
# B14: il2ra_site1_2b5i_normal_mot_HHH_b1_08745_af2_000000166_0001_39_57_H_._HHH_b2_04998_0001_0000300020_0000001_0_af2pred_dldesign_0_af2pred (protein)
# chain: SSSSSSGEEIRRLLLEAERLRKAGKEEEAKELLERALELARARKATLAQKFIESALKSLSSSSSS
# B15: il2ra_site2_3nfp_normal_mot_HHH_b1_06158_af2_000000274_0001_1_17_H_._HHH_b1_07117_af2_0001_0000700036_0000001_0 (protein)
# chain: SSSSDEKEKLEELMEQALDSAEALGDEELKELLEELLEELREKGDPRILLEAYELVREAYESSSS
# B16: il2ra_site1_1z92_sap_13_mot_HHH_b2_05238_af2_000000252_0001_38_55_H_._HHH_b2_06678_0001_0000100005_0000001_0_0001 (protein)
# chain: SSSSTRELARIIAELISRFKLSLEDMRELDRLALELARRGYSDEEIEELLEELAEELKKGSSSSS
# B17: il2ra_site2_2erj_normal_mot_HHH_b1_01197_000000128_0001_38_49_H_._HHH_b1_08340_0001_0000300010_0000001_0 (protein)
# chain: SSSSDELRERIEELLEELEKLVKEGDLARVQEVAQEIAELLRELGDPELAKELNRLLQEAMSSSS
# B18: il2ra_site2_3nfp_normal_mot_HHH_b1_00660_af2_000000090_0001_40_57_H_._HHH_b1_06383_af2_0001_0000300014_0000001_0 (protein)
# chain: SSSSSELEERIRRLLEELEERIKEGDEERVRELLEEIANLIWELQNFELFAILNELRALAASSSS
# B19: il2ra_site2_2erj_sap_20_mot_HHH_b1_05785_af2_000000218_0001_1_18_H_._ems_3hM_3566_0001_0000700017_0000001_0_0001 (protein)
# chain: SSSSDEELRRLYELANELMRLLSEGDEEEFEKVLEEAKELAHRRNSENAEEVLEWLEKALSSSSS
# B20: il2ra_site1_2b5i_normal_mot_0e5a94e4a5addaac739760efb25f0f5d_0001_000000289_0001_18_32_H_._ems_p1-16H-GBL-16H-GABBL-16H_0048_0001_0001_0001_0001_0000300027_0000 … (protein)
# chain: SSSSSKAEKLATEVYDIASAKGDKEALKEAIRILYDYQTGRLSEEEAVERLTKLKERVLESSSSS
# B21: il2ra_site1_2b5i_normal_mot_7f4edd48de514878b8c7c0e8b1dada65_0001_af2_000000251_0001_36_50_H_._HHH_b2_03947_0001_0000100001_0000001_1_af2pred_dldesign_0_af2pred (protein)
# chain: SSSSSSSAKEKVEELLEKAKTLKDEFELNKTLFEAYIVARKAKDEEMLKKIEKLWNELSSSSSSS
# B22: il2ra_site2_2erj_normal_mot_HHH_b2_06005_000000006_0001_1_15_H_._HHH_b2_07199_0001_0000100003_0000001_0 (protein)
# chain: SSSSSDEERVEQLLEEVEELLRRGNPEEAFAVLAEAVEVAVRAQNEELLRLIREVFEEVYNSSSS
# B23: il2ra_site1_2b5i_sap_8_mot_22370d59370c406a0c205a431f537cfa_0001_af2_000000141_0001_1_31_H_._HHH_b2_02941_af2_0001_0000100002_0000001_0_0001_af2pred_0001_af2pre … (protein)
# chain: SSSSDKELAEELVEALLEEAKHIEDEKRALAIVSLAIAVARAGRDEELRELAEEVLEELRSSSSS
# B24: il2ra_site1_1z92_sap_12_mot_HHH_b2_00969_af2_000000010_0001_43_57_H_._143a287d0b402db772f1b684e0b208e7_0001_0001_0000400040_0000001_0_0001 (protein)
# chain: SSSSDLKRSAEIVVRMAVEVAGLSEEQKEELERVAEEALERGLDFLEILKLLDKVARELDSSSSS
# Target: il2ra, P01589
# Assay: yeast display titration
row,Binder,apparent Kd
1,B1,inactive: no binding seen
2,B2,inactive: no binding seen
3,B3,inactive: no binding seen
4,B4,inactive: no binding seen
5,B5,inactive: no binding seen
6,B6,inactive: no binding seen
7,B7,inactive: no binding seen
8,B8,inactive: no binding seen
9,B9,inactive: no binding seen
10,B10,inactive: no binding seen
11,B11,inactive: no binding seen
12,B12,inactive: no binding seen
13,B13,inactive: no binding seen
14,B14,inactive: no binding seen
15,B15,inactive: no binding seen
16,B16,inactive: no binding seen
17,B17,inactive: no binding seen
18,B18,inactive: no binding seen
19,B19,inactive: no binding seen
20,B20,inactive: no binding seen
21,B21,inactive: no binding seen
22,B22,inactive: no binding seen
23,B23,inactive: no binding seen
24,B24,inactive: no binding seen

# Given bar-delimited: entries from further up.
row | Binder | apparent Kd
10 | B10 | inactive: no binding seen
11 | B11 | inactive: no binding seen
